Measured values published in PubChem BioAssay AID330 (DTP/NCI, 2004).
The list does not hold the whole screen: it is rich in T/C values a quarter to a half above the control, in often repeated tests (any T/C) and in doses without a T/C. Other doses and runs of a compound stand elsewhere. T/C is the treated group as % of the vehicle group. Some doses have a count of surviving animals in place of a T/C: the source holds a T/C of zero for them, seemingly a mark for toxic or unscored doses. Some doses without a T/C left all or most animals alive at the check, yet need not have been tolerated: survival well below the control is almost never listed, so the zero probably covers shortened survival too. Counts of survivors are from the toxicity check (mostly the fifth day) where no day follows; animals may have died later. Schedule codes are those of the source, read here as Q, the interval in days (D) or hours (H), X, the number of doses. Some entries were tested several times; the values are given in rising order. For survival time, this PubChem deposit counts one and a half times the control or more as active, and values a quarter to a half above the control carry no call in these data; other NCI protocols may use other cut-offs.

System: P388 leukemia ip, CD2F1 mice, survival T/C
Experiment: NCI In Vivo Anticancer Drug Screen. Data for tumor model P388 Leukemia (intraperitoneal) in CD2F1 (CDF1) mice
Conditions: T/C endpoint: median survival time, higher T/C = longer survival
[1] = dose: 120.0 mg/kg/injection, schedule: Q01DX005 (ip), vehicle: saline with Tween-80
[2] = dose: 400.0 mg/kg/injection, schedule: Q04DX003 (ip), vehicle: saline with Tween-80
[3] = dose: 240.0 mg/kg/injection, schedule: Q01DX005 (ip), vehicle: saline with Tween-80
[4] = dose: 200.0 mg/kg/injection, schedule: Q04DX003 (ip), vehicle: saline with Tween-80
[5] = dose: 25.0 mg/kg/injection, schedule: Q01DX005 (ip), vehicle: Klucel (hydroxypropylcellulose) (HPC)
[6] = dose: 50.0 mg/kg/injection, schedule: Q01DX005 (ip), vehicle: Klucel (hydroxypropylcellulose) (HPC)
[7] = dose: 100.0 mg/kg/injection, schedule: Q01DX005 (ip), vehicle: Klucel (hydroxypropylcellulose) (HPC)
[8] = dose: 200.0 mg/kg/injection, schedule: Q01DX005 (ip), vehicle: Klucel (hydroxypropylcellulose) (HPC)
[9] = dose: 120.0 mg/kg/injection, schedule: Q01DX005 (ip), vehicle: Klucel (hydroxypropylcellulose) (HPC)
[10] = dose: 240.0 mg/kg/injection, schedule: Q01DX005 (ip), vehicle: Klucel (hydroxypropylcellulose) (HPC)
[11] = dose: 50.0 mg/kg/injection, schedule: Q01DX009 (ip), vehicle: saline
[12] = dose: 100.0 mg/kg/injection, schedule: Q01DX009 (ip), vehicle: saline with Tween-80
[13] = dose: 100.0 mg/kg/injection, schedule: Q04DX002 (ip), vehicle: saline with Tween-80
[14] = dose: 200.0 mg/kg/injection, schedule: Q01DX005 (ip), vehicle: saline with Tween-80
[15] = dose: 100.0 mg/kg/injection, schedule: Q01DX009 (ip), vehicle: suspension in saline
[16] = dose: 50.0 mg/kg/injection, schedule: Q01DX009 (ip), vehicle: saline with Tween-80
[17] = dose: 200.0 mg/kg/injection, schedule: Q01DX009 (ip), vehicle: saline with Tween-80

Compound: O=c1[nH]c2cc(Cl)ccc2nc1/C=C(O)/C=C/c1ccccc1
- survivor count [1]: 6 of 6

Compound: CCc1nnc2c(C)c(C)nc(C)n12
- survivor count [2]: 3 of 6

Compound: CC(CN(C)C)C(=O)/C=C/c1c(Cl)cccc1Cl (stereo unspecified)
- survivor count [1]: 4 of 6
- survivor count [3]: 0 of 6

Compound: Nc1nc(-c2ccccc2)cc2ccccc12
- survivor count (dose: 100.0 mg/kg/injection, schedule: Q04DX003 (ip), vehicle: saline with Tween-80): 0 of 6
- survivor count [4]: 0 of 6
- survivor count [2]: 0 of 6

Compound: C=CCc1cc(Nc2c3ccc(Cl)cc3nc3ccc(OC)cc23)cc(CN(CC)CC)c1O
- survivor count (dose: 12.5 mg/kg/injection, schedule: Q01DX005 (ip), vehicle: Klucel (hydroxypropylcellulose) (HPC)): 1 of 6 and 4 of 6
- survivor count [5]: 0 of 5 and 0 of 6
- survivor count [6]: 0 of 5
- survivor count [7]: 0 of 5
- survivor count [8]: 0 of 5

Compound: CC(=O)OC1CC2CCCCC2[N+](C)(C)C1 (stereo unspecified)
- survivor count (dose: 100.0 mg/kg/injection, schedule: Q04DX003 (ip), vehicle: saline): 6 of 6
- survivor count (dose: 200.0 mg/kg/injection, schedule: Q04DX003 (ip), vehicle: saline): 0 of 6
- survivor count (dose: 400.0 mg/kg/injection, schedule: Q04DX003 (ip), vehicle: saline): 0 of 6

Compound: CCN(CC)c1ccc(/C=N/Nc2c3c(nc4ccccc24)CCCC3)cc1
- survivor count (dose: 25.0 mg/kg/injection, schedule: Q01DX005 (ip), vehicle: saline): 5 of 6
- survivor count (dose: 50.0 mg/kg/injection, schedule: Q01DX005 (ip), vehicle: saline): 1 of 6
- survivor count (dose: 100.0 mg/kg/injection, schedule: Q01DX005 (ip), vehicle: saline): 0 of 6
- survivor count (dose: 200.0 mg/kg/injection, schedule: Q01DX005 (ip), vehicle: saline): 0 of 6

Compound: CC(=O)C1CCC2=C(C1)C(=O)c1cc3c(-c4ccccc4)oc(-c4ccccc4)c3cc1C2=O (stereo unspecified)
- survivor count (dose: 7.5 mg/kg/injection, schedule: Q01DX005 (ip), vehicle: Klucel (hydroxypropylcellulose) (HPC)): 6 of 6
- survivor count (dose: 15.0 mg/kg/injection, schedule: Q01DX005 (ip), vehicle: Klucel (hydroxypropylcellulose) (HPC)): 6 of 6
- survivor count (dose: 30.0 mg/kg/injection, schedule: Q01DX005 (ip), vehicle: Klucel (hydroxypropylcellulose) (HPC)): 5 of 6 and 6 of 6
- survivor count (dose: 60.0 mg/kg/injection, schedule: Q01DX005 (ip), vehicle: Klucel (hydroxypropylcellulose) (HPC)): 6 of 6
- survivor count [9]: 6 of 6
- survivor count [10]: 6 of 6

Compound: COc1cccc2c1C(=O)c1c(O)c(CCl)cc(OC)c1C2=O
- survivor count [1]: 5 of 6
- survivor count [3]: 1 of 6

Compound: O=C1N(CC2CO2)CCN1CC1CO1 (stereo unspecified)
- T/C [11]: 130 and 144 % of control

Compound: CC(C)=CCC/C(C)=C/COC(=O)C=[N+]=[N-]
- T/C [12]: 126 % of control

Compound: [C-]#[O+].[Cl][Ru]([Cl])([Cl])([Cl])[Cl]
- survivor count (dose: 100.0 mg/kg/injection, schedule: Q04DX003 (ip), vehicle: water): 6 of 6
- survivor count (dose: 200.0 mg/kg/injection, schedule: Q04DX003 (ip), vehicle: water): 5 of 6

Compound: COc1cc(C=C2C(=O)C=CC2=O)cc(OC)c1OC
- survivor count (dose: 25.0 mg/kg/injection, schedule: Q04DX002 (ip), vehicle: saline with Tween-80): 0 of 6
- survivor count (dose: 50.0 mg/kg/injection, schedule: Q04DX002 (ip), vehicle: saline with Tween-80): 0 of 6
- survivor count [13]: 1 of 6

Compound: CCn1cnc2sc3c(c2c1=O)CCCC3
- survivor count [3]: 3 of 6

Compound: CN(C)c1ccc2nc3ccc(=[N+](C)C)c([N+](=O)[O-])c-3sc2c1
- survivor count (dose: 60.0 mg/kg/injection, schedule: Q01DX005 (ip), vehicle: saline): 1 of 6
- survivor count (dose: 120.0 mg/kg/injection, schedule: Q01DX005 (ip), vehicle: saline): 0 of 6
- survivor count [14]: 0 of 5
- survivor count (dose: 240.0 mg/kg/injection, schedule: Q01DX005 (ip), vehicle: saline): 0 of 6

Compound: Cc1ccc(Cl)c(C(O)(C(F)(F)F)C(F)(F)F)c1
- survivor count (dose: 400.0 mg/kg/injection, schedule: Q01DX001 (ip), vehicle: other): 4 of 6

Compound: c1ccc2c(C3CCCN4CCCCC34)c[nH]c2c1 (stereo unspecified)
- survivor count [13]: 1 of 6 and 3 of 6
- survivor count (dose: 200.0 mg/kg/injection, schedule: Q04DX002 (ip), vehicle: saline with Tween-80): 0 of 6
- survivor count (dose: 400.0 mg/kg/injection, schedule: Q04DX002 (ip), vehicle: saline with Tween-80): 0 of 6

Compound: CC1CC(=O)c2cc3oc(=O)n(C)c3cc21 (stereo unspecified)
- survivor count [8]: 6 of 6

Compound: C(Oc1nc(OCC2CO2)nc(OCC2CO2)n1)C1CO1 (stereo unspecified)
- survivor count (dose: 100.0 mg/kg/injection, schedule: Q01DX009 (ip), vehicle: saline): 4 of 6
- survivor count (dose: 200.0 mg/kg/injection, schedule: Q01DX009 (ip), vehicle: saline): 4 of 6

Compound: CN(C)c1ccc2c3c(c(=O)oc2c1)CCC3
- survivor count [12]: 6 of 6

Compound: CNC(=O)OCc1c(COC(=O)NC)c(C)n(-c2ccc(F)cc2)c1C
- T/C (dose: 12.5 mg/kg/injection, schedule: Q01DX009 (ip), vehicle: saline): 127 and 142 % of control
- T/C (dose: 25.0 mg/kg/injection, schedule: Q01DX009 (ip), vehicle: saline): 145 % of control
- T/C [11]: 133 and 145 % of control

Compound: CC(=O)OCC12C(=O)CC(C)C3(CC(c4ccoc4)OC3=O)C1(C)CCCC21CO1 (stereo unspecified) (tested in a mixture with another compound)
- survivor count (dose: 192.0 mg/kg/injection, schedule: Q01DX005 (ip), vehicle: Klucel (hydroxypropylcellulose) (HPC)): 5 of 5

Compound: CN(C)c1ccc(N=C2C=CC(=O)C(Cl)=C2)cc1
- survivor count [15]: 6 of 6
- survivor count (dose: 200.0 mg/kg/injection, schedule: Q01DX009 (ip), vehicle: suspension in saline): 0 of 6

Compound: Nc1nc2[nH]ncc2c(=O)[nH]1
- survivor count [4]: 2 of 6

Compound: COC(=O)C(=O)C(C(=O)c1ccc(F)cc1)c1nc2n(c1O)C(=N)N=N2 (stereo unspecified)
- survivor count [3]: 6 of 6

Compound: O=C1SC/C(=N\N=c2/scc(-c3ccccc3)n2-c2ccc(Br)cc2)N1Cc1ccccc1
- survivor count (dose: 400.0 mg/kg/injection, schedule: Q04DX002 (ip), vehicle: Klucel (hydroxypropylcellulose) (HPC)): 6 of 6

Compound: CC1(C)CCC[C@]2(C)[C@@H](C=O)C(C=O)=CC[C@@H]12
- survivor count [5]: 3 of 6 and 4 of 6
- survivor count [6]: 1 of 6
- survivor count [7]: 0 of 6
- survivor count [8]: 0 of 5

Compound: CCN(CC)CC.[CH-]1CCCCC1.[CH-]1CCCCC1.[CH-]1CCCCC1.[Cl-].[I-].[Sn+4]
- survivor count (dose: 12.0 mg/kg/injection, schedule: Q01DX005 (ip), vehicle: Klucel (hydroxypropylcellulose) (HPC)): 2 of 6
- survivor count [5]: 0 of 6
- survivor count [6]: 0 of 6
- survivor count [7]: 0 of 6
- survivor count [8]: 0 of 6

Compound: CCC(=O)Nc1ccc(C(=O)C(C)Br)cc1 (stereo unspecified)
- survivor count [16]: 4 of 6
- survivor count [12]: 1 of 6
- survivor count [17]: 1 of 6

Compound: COC(=Nc1ccccc1)SSC(C)C
- T/C [16]: 133 % of control
- T/C [12]: 146 % of control
- survivor count [12]: 5 of 6
- survivor count [17]: 1 of 6 and 3 of 6

Compound: CCN(Cc1ccc(CN(CC)C(=O)c2c(-c3ccccc3)noc2C)cc1)C(=O)c1c(-c2ccccc2)noc1C
- survivor count [15]: 6 of 6

Compound: CN(C)c1ccc(Cc2ccc(N(C)C)nc2)cn1
- survivor count [14]: 2 of 5

Compound: O=c1oc2nc(-c3ccccc3)[nH]c(=O)c2c(O)c1Cc1ccccc1
- survivor count [9]: 4 of 6
- survivor count [10]: 4 of 6
